No constants are given. Whether binding was seen depends on the method and setting. In cells and extracts the contact can be indirect. Some entries that bind do so weakly or less than the wild type.
Biological target: Cytotoxic T Lymphocyte Antigen 4 (human (endogenous in Tregs from patients and healthy donors)) (UniProt P16410)
Test: co-IP; lysates of Tregs from RA patients and HCs precleared, incubated with anti-CTLA4 (sc-18829) and protein A/G PLUS-Agarose at 4 °C for 12 h; SDS-PAGE and blot with caveolin-1 antibody; also RA Tregs treated with vehicle or Genipin 25 μM (Fig. 5E) and HC Tregs transfected with control or mCherry-UCP2 (Fig. 5Q)

Amino acid sequences for entries named in this document (tags omitted). Residues count along the entry.
UniProt P16410, residues 36-223: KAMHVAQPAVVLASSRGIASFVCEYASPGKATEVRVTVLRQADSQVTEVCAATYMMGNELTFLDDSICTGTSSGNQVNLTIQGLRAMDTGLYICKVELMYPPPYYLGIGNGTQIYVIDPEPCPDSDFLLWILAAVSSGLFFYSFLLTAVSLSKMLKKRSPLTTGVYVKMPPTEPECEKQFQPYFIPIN
UniProt Q03135: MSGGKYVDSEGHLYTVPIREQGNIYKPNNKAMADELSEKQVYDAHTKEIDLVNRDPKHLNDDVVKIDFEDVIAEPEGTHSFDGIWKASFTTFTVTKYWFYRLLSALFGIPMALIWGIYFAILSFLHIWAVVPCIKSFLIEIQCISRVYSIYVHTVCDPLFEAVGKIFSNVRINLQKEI

Question: For Caveolin-1 (from UniProt Q03135 1-178), which binding is on record?
Answer: Its binding is “binds”.
